{"source": "PubChem BioAssay AID1508588 | Peter MacCallum Cancer Centre, 2020", "screen": "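Genome-wide search for knock-downs that heighten vemurafenib action in melanoma cells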 (primary screen)", "cells": "human WM266.4 melanoma cells (BRAF V600 mutant)", "reagents": "siRNA pool against human genes, 40 nM", "duration": "96 h from transfection to read-out", "challenge": "vemurafenib 300 nM (about IC25), added 48 h after transfection, for 48 h; comparison arm got DMSO vehicle only", "read-out": "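Ratios to non-targeting siRNA for cell gain, counted as DAPI nuclei after minus before drug and averaged over two replicates, and for absorbance-read medium lactate per cell; both binned into fold-change classes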", "reading the numbers": "cell gain with vemurafenib: higher = more cell gain than with non-targeting siRNA; lactate per cell with vemurafenib: higher = more lactate made per cell", "hit rule": "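a knock-down counts as enhancing when its fold-change classes with vehicle and with vemurafenib, taken together, show a stronger drug effect on cell gain or lactate per cell; exact class pairs not stated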", "calls": "active = enhances vemurafenib effect; inactive = no enhancement seen", "note": "The deposit covers about 18,000 reagents; shown is a random part of them. 790 of all reagents (4.4%) count as active. 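Calls rest on a combination of fold-change classes in drug and vehicle arms, not all shown here.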 Unmarked entries are inactive."}
{"gene": "EIF2AK3 (eukaryotic translation initiation factor 2 alpha kinase 3)", "PubChem SID": "SID152151333", "cell gain with vemurafenib": 0.91, "lactate per cell with vemurafenib": 0.62}
{"gene": "TCEA2 (transcription elongation factor A2)", "PubChem SID": "SID134320235", "cell gain with vemurafenib": 0.79, "lactate per cell with vemurafenib": 1.06}
{"gene": "CFAP36 (cilia and flagella associated protein 36)", "PubChem SID": "SID152151027", "cell gain with vemurafenib": 0.39, "lactate per cell with vemurafenib": 1.69}
{"gene": "FTH1 (ferritin heavy chain 1)", "PubChem SID": "SID152154604", "cell gain with vemurafenib": 0.95, "lactate per cell with vemurafenib": 1.19}
{"gene": "EOMES (eomesodermin)", "PubChem SID": "SID134321417", "cell gain with vemurafenib": 0.74, "lactate per cell with vemurafenib": 0.48}
{"gene": "ZIM3 (zinc finger imprinted 3)", "PubChem SID": "SID134312236", "cell gain with vemurafenib": 0.47, "lactate per cell with vemurafenib": 2.31}
{"gene": "EID3 (EP300 interacting inhibitor of differentiation 3)", "PubChem SID": "SID135625376", "cell gain with vemurafenib": 0.35, "lactate per cell with vemurafenib": 1.44}
{"gene": "ACSM3 (acyl-CoA synthetase medium chain family member 3)", "PubChem SID": "SID152147444", "cell gain with vemurafenib": 0.6, "lactate per cell with vemurafenib": 0.9}
{"gene": "LCORL (ligand dependent nuclear receptor corepressor like)", "PubChem SID": "SID135623656", "cell gain with vemurafenib": 0.39, "lactate per cell with vemurafenib": 1.51}
{"gene": "ZIK1 (zinc finger protein interacting with K protein 1)", "PubChem SID": "SID152154026", "cell gain with vemurafenib": 1.02, "lactate per cell with vemurafenib": 0.6}
{"gene": "SOD2 (superoxide dismutase 2)", "PubChem SID": "SID135621837", "cell gain with vemurafenib": 1, "lactate per cell with vemurafenib": 1.12}
{"gene": "ODF1 (outer dense fiber of sperm tails 1)", "PubChem SID": "SID134315692", "cell gain with vemurafenib": 0.41, "lactate per cell with vemurafenib": 0.7}
{"gene": "CPPED1 (calcineurin like phosphoesterase domain containing 1)", "PubChem SID": "SID152148475", "cell gain with vemurafenib": 0.31, "lactate per cell with vemurafenib": 0.97}
{"gene": "ANKRD1 (ankyrin repeat domain 1)", "PubChem SID": "SID134316779", "cell gain with vemurafenib": 0.13, "lactate per cell with vemurafenib": 2.16}
{"gene": "COPS7A (COP9 signalosome subunit 7A)", "PubChem SID": "SID134324505", "cell gain with vemurafenib": 0.82, "lactate per cell with vemurafenib": 0.72}
{"gene": "GPATCH11 (G-patch domain containing 11)", "PubChem SID": "SID134321763", "cell gain with vemurafenib": 0.72, "lactate per cell with vemurafenib": 1.01}
{"gene": "SLC39A6", "PubChem SID": "SID135621410", "cell gain with vemurafenib": 0.96, "lactate per cell with vemurafenib": 0.82}
{"gene": "CCL21 (C-C motif chemokine ligand 21)", "PubChem SID": "SID152156291", "cell gain with vemurafenib": 0.52, "lactate per cell with vemurafenib": 0.35}
{"gene": "MFAP3 (microfibril associated protein 3)", "PubChem SID": "SID134321046", "cell gain with vemurafenib": "0.48 (active)", "lactate per cell with vemurafenib": 0.46}
{"gene": "SLC34A1", "PubChem SID": "SID152152125", "cell gain with vemurafenib": 0.63, "lactate per cell with vemurafenib": 1.25}
{"gene": "FKBPL (FKBP prolyl isomerase like)", "PubChem SID": "SID134323056", "cell gain with vemurafenib": 0.37, "lactate per cell with vemurafenib": 1.19}
{"gene": "CALB1 (calbindin 1)", "PubChem SID": "SID135622238", "cell gain with vemurafenib": 0.27, "lactate per cell with vemurafenib": 1.19}
{"gene": "ABHD17B (abhydrolase domain containing 17B, depalmitoylase)", "PubChem SID": "SID152147665", "cell gain with vemurafenib": "0.59 (active)", "lactate per cell with vemurafenib": 0.56}
{"gene": "ARPC4 (actin related protein 2/3 complex subunit 4)", "PubChem SID": "SID152150846", "cell gain with vemurafenib": "0.73 (active)", "lactate per cell with vemurafenib": 0.47}
{"gene": "LIME1 (Lck interacting transmembrane adaptor 1)", "PubChem SID": "SID135624061", "cell gain with vemurafenib": 0.95, "lactate per cell with vemurafenib": 1.09}
{"gene": "LSM4", "PubChem SID": "SID134320990", "cell gain with vemurafenib": 0.47, "lactate per cell with vemurafenib": 1.18}
{"gene": "EID2B (EP300 interacting inhibitor of differentiation 2B)", "PubChem SID": "SID134320525", "cell gain with vemurafenib": -0.02, "lactate per cell with vemurafenib": 2.8}
{"gene": "MLXIPL (MLX interacting protein like)", "PubChem SID": "SID135621733", "cell gain with vemurafenib": "0.6 (active)", "lactate per cell with vemurafenib": 0.46}
{"gene": "ITLN2 (intelectin 2)", "PubChem SID": "SID134313457", "cell gain with vemurafenib": 0.98, "lactate per cell with vemurafenib": 1.06}
{"gene": "MYO1C (myosin IC)", "PubChem SID": "SID152155410", "cell gain with vemurafenib": 0.82, "lactate per cell with vemurafenib": 0.61}
{"gene": "GABPB2 (GA binding protein transcription factor subunit beta 2)", "PubChem SID": "SID134320085", "cell gain with vemurafenib": 0.2, "lactate per cell with vemurafenib": 0.65}
{"gene": "ZNF354A (zinc finger protein 354A)", "PubChem SID": "SID134312709", "cell gain with vemurafenib": 0.79, "lactate per cell with vemurafenib": 0.51}
{"gene": "PCSK1N (proprotein convertase subtilisin/kexin type 1 inhibitor)", "PubChem SID": "SID134317923", "cell gain with vemurafenib": 0.35, "lactate per cell with vemurafenib": 2.16}
{"gene": "CFAP221 (cilia and flagella associated protein 221)", "PubChem SID": "SID152149119", "cell gain with vemurafenib": 0.58, "lactate per cell with vemurafenib": 1.58}
{"gene": "RIPK1 (receptor interacting serine/threonine kinase 1)", "PubChem SID": "SID152148235", "cell gain with vemurafenib": 0.76, "lactate per cell with vemurafenib": 1.45}
{"gene": "OR6T1 (olfactory receptor family 6 subfamily T member 1)", "PubChem SID": "SID135624576", "cell gain with vemurafenib": 0.44, "lactate per cell with vemurafenib": 1.25}
{"gene": "GPR19 (G protein-coupled receptor 19)", "PubChem SID": "SID134310995", "cell gain with vemurafenib": "0.49 (active)", "lactate per cell with vemurafenib": 0.34}
{"gene": "FBXL3 (F-box and leucine rich repeat protein 3)", "PubChem SID": "SID134316694", "cell gain with vemurafenib": 0.64, "lactate per cell with vemurafenib": 0.76}
{"gene": "PARP15 (poly(ADP-ribose) polymerase family member 15)", "PubChem SID": "SID134321136", "cell gain with vemurafenib": 0.88, "lactate per cell with vemurafenib": 0.56}
{"gene": "RRP8 (ribosomal RNA processing 8)", "PubChem SID": "SID134318216", "cell gain with vemurafenib": "0.23 (active)", "lactate per cell with vemurafenib": -0.06}
